Test results from paper PMC7072578.
No constants are given. Whether binding was seen depends on the method and setting. Binding seen in cells or lysates may run through a third protein. Some results given as binding are weak or reduced against the parent protein; the word gives no strength.

By UniProt entry, the sequences of proteins in these tests, tags left out.
UniProt Q15311: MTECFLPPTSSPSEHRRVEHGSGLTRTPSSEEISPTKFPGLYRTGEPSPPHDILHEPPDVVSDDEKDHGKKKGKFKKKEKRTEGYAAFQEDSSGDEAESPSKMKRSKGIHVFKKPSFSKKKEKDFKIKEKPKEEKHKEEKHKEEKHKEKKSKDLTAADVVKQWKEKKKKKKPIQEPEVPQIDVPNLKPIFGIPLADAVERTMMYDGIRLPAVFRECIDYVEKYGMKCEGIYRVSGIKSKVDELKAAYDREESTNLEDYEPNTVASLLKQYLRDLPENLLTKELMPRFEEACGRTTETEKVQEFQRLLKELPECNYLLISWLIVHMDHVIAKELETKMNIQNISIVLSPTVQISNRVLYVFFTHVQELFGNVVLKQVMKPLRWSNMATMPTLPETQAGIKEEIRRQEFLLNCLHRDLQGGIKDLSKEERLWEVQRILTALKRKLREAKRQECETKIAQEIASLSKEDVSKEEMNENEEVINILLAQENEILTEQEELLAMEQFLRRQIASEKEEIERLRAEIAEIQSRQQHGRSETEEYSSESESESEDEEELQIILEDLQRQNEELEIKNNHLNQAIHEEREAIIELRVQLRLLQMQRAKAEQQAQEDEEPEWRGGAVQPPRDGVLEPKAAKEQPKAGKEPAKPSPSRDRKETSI

Molecular target: RalA-binding protein 1 (human (endogenous in OVCAR8 and DOV13)) (UniProt Q15311)
Test: co-IP; lysates of OVCAR8 and DOV13 cells (IP lysis buffer); anti-RALBP1 (clone 2A1) or anti-REPS1 (clone D6F4) on Dynabeads protein G, 1 mg of cell lysate overnight at 4 °C, washed three times with PBS; Western blot

B1: RalBP1-associated Eps domain-containing protein 1 (protein, UniProt Q96D71 1-796)
chain: MEGLTLSDAEQKYYSDLFSYCDIESTKKVVVNGRVLELFRAAQLPNDVVLQIMELCGATRLGYFGRSQFYIALKLVAVAQSGFPLRVESINTVKDLPLPRFVASKNEQESRHAASYSSDSENQGSYSGVIPPPPGRGQVKKGSVSHDTVQPRTSADAQEPASPVVSPQQSPPTSPHTWRKHSRHPSGGNSERPLAGPGPFWSPFGEAQSGSSAGDAVWSGHSPPPPQENWVSFADTPPTSTLLTMHPASVQDQTTVRTVASATTAIEIRRQSSSYDDPWKITDEQRQYYVNQFKTIQPDLNGFIPGSAAKEFFTKSKLPILELSHIWELSDFDKDGALTLDEFCAAFHLVVARKNGYDLPEKLPESLMPKLIDLEDSADVGDQPGEVGYSGSPAEAPPSKSPSMPSLNQTWPELNQSSEQWETFSERSSSSQTLTQFDSNIAPADPDTAIVHPVPIRMTPSKIHMQEMELKRTGSDHTNPTSPLLVKPSDLLEENKINSSVKFASGNTVADGYSSSDSFTSDPEQIGSNVTRQRSHSGTSPDNTAPPPPPPRPQPSHSRSSSLDMNRTFTVTTGQQQAGVVAHPPAVPPRPQPSQAPGPAVHRPVDADGLITHTSTSPQQIPEQPNFADFSQFEVFAASNVNDEQDDEAEKHPEVLPAEKASDPASSLRVAKTDSKTEEKTAASAPANVSKGTTPLAPPPKPVRRRLKSEDELRPEVDEHTQKTGVLAAVLASQPSIPRSVGKDKKAIQASIRRNKETNTVLARLNSELQQQLKDVLEERISLEVQLEQLRPFSHL
B1 was tested. Which binding did it give?
The binding was “binds”.
